Source: publication PMC12136792, “ADP ribosylation factor–like GTPase 6–interacting protein 5 (Arl6IP5) is an ER membrane-shaping protein that modulates ER-phagy” (The Journal of Biological Chemistry, 2025)
Results are given in words; binding and its absence hold for the method and conditions named. Binding seen in cells or lysates may run through a third protein. Some binding calls cover weakened binding; strength is not graded here. Where a sequence is shown, tags or fusion partners need not be part of it.

Molecular target: HA-tagged Arl6IP5 (ADP ribosylation factor-like GTPase 6-interacting protein 5) (human) (UniProt O75915)
Assay: cross-linking; membrane fraction of COS-7 cells transfected with HA-Arl6IP5, in HKM buffer (25 mM Hepes-KOH pH 7.4, 150 mM potassium acetate, 2.5 mM magnesium acetate), various concentrations of BS3, 30 min, room temperature; SDS-PAGE and anti-HA immunoblot

B1: HA-tagged Arl6IP5 (ADP ribosylation factor-like GTPase 6-interacting protein 5) (natural protein, human, UniProt O75915 1-188, looked up)
chain: MDVNIAPLRAWDDFFPGSDRFARPDFRDISKWNNRVVSNLLYYQTNYLVVAAMMISIVGFLSPFNMILGGIVVVLVFTGFVWAAHNKDVLRRMKKRYPTTFVMVVMLASYFLISMFGGVMVFVFGITFPLLLMFIHASLRLRNLKNKLENKMEGIGLKRTPMGIVLDALEQQEEGINRLTDYISKVKE
notes: Arl6IP5, human, cDNA in pCMV vector with N-terminal HA tag; ER membrane protein; tested in the membrane fraction, not solubilised; also called HA-Arl6IP5; PRAF3; source: COS-7, transfected (PEI), crude membrane fraction; not shown: HA, N-terminal, kept
- binding: binds
